# Results reported in the supplement of paper PMC5949888.
# Most values lie at the floor of the assay. Slopes are relative: functional sequences can read slightly below zero.
# Test system: Saccharomyces cerevisiae PS128 hsf1 delta, HSF1(1-493) fusion
# Assay: growth estimate (transactivation domain function in HSF1 fusion, heat-shock survival) (a.u. (slope of normalised read count over time)); higher = stronger growth at 37°C, i.e. more transactivation activity
# Conditions: library: random library
# Method: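 Random 60-nt DNA library encoding peptides of up to 20 aa, fused to the C-terminus of yeast HSF1 residues 1-493 (C-terminal TAD deleted) and expressed from the native HSF1 promoter on a CEN plasmid in hsf1-deleted S. cerevisiae PS128. Cells were selected at 37°C on -trp 5-FOA plates for 0, 2, 4, 6 and 8 days and amplicons were sequenced. Growth estimate is the slope of a robust linear fit of total-sum-normalised read counts (normalised to the first time point) over time, using at least 2 replicates. Sequences are classed functional (TAD activity) above a threshold of -0.13, set from stop-codon control sequences.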
row,Substance,growth estimate
1,CSLDRSQDELNPLVS,< -0.25
2,TGEILELIEYE,< -0.25
3,LGRRELPMVASLLVLWLSAL,< -0.25
4,PQNQIVNVWLRWERGYFVGA,< -0.25
5,SYKDMLLGFKENAHSMLHCK,< -0.25
6,SIHHHV,< -0.25
7,RSPGYSLVRKASWTKAVCSA,< -0.25
8,CSFGRRYRGAVDCFSQGVRL,< -0.25
9,PSSGLVRRLDQERVPPC,-0.243
10,RSAGLRTGWYRRGALVSSER,< -0.25
11,RLRLEENAVEGQQQQTVTGL,< -0.25
12,FYGVV,< -0.25
13,FWTTGHMAYSYGSCSKSGPG,< -0.25
14,GTLIEESDAYAR,< -0.25
15,FIGV,< -0.25
16,RYILV,< -0.25
17,VQLVGPQRVRQSTCGASVFQ,< -0.25
18,WVKVTWYAPCTFSYIDHVGA,< -0.25
19,DLGGQAEI,< -0.25
20,EWDLTYGRGLNTSTTRLGGR,< -0.25
21,VSEAI,< -0.25
22,LYRIDFASASSRA,< -0.25
23,YRVICSYNASAVSRICSRHK,< -0.25
24,NVNVCSNHTFRRVVLRDYQA,< -0.25
25,SQSPLFDKYVGTV,< -0.25
26,LHCA,< -0.25

# Part of the list above, as tab-separated lines:
row	Substance	growth estimate
1	CSLDRSQDELNPLVS	< -0.25
7	RSPGYSLVRKASWTKAVCSA	< -0.25

# The results go on.

row,Substance,growth estimate
1,CLFTESVTPMESSWYLGHIG,< -0.25
2,RTEQLGRI,< -0.25
3,VFQKAR,< -0.25
4,TISAPLRLRSAMRG,< -0.25
5,KSWARNSRCVYRMDSRNTGT,< -0.25
6,LDDRSTFVRRSDVTLFIIAT,< -0.25
7,VAEQSVACL,< -0.25
8,DEAANSNVCGPSSGGLHGSA,< -0.25
9,LSRHAPRGPHV,< -0.25
10,YKVRTRRRFCIGSRTASDTT,< -0.25
11,PLAGSSRTNVSATALA,< -0.25
12,VSCLSTSVGEGLSYLSPIDG,< -0.25
13,ASDSIR,< -0.25
14,QSAIGRVRLTS,< -0.25
15,DSEAYRSRHQLAAEPD,< -0.25
16,PRG,< -0.25
17,RRLIATESPVILRSHIPLRA,< -0.25
18,NSRSAIPALNGNLPWHTVSP,< -0.25
19,WMVRFSPRSDIDKVTKACRD,< -0.25
20,AYGSVRG,< -0.25
21,WRWAISVDSRRHQTWRGYGR,< -0.25
22,PGVSRPSLGGNGDD,< -0.25
23,DGRTMGKVMARRLEMK,< -0.25
24,FPLAPH,< -0.25
25,RIEGAHS,< -0.25
26,LEQVFFT,< -0.25

row,Substance,growth estimate
1,INH,< -0.25
2,GLGPAGTIDERMFRMEHLGW,< -0.25
3,GVTGDSGDRALTRDIFYGWH,-0.245
4,RRCGGPLVPTTVV,< -0.25
5,LVAQLNTCFMSPSCLV,< -0.25
6,CSWNRV,< -0.25
7,LGSRDRLAQRVGVIVIPRND,< -0.25
8,NYREVGKCCSNPR,< -0.25
9,YNLMIGPGRVYAPRNPV,< -0.25
10,PTKIRCNVDSQIRL,< -0.25
11,FVGGLGGCHMFVLNALERCT,< -0.25
12,FVCCLRCLKGIVHVSIFDLC,< -0.25
13,GIGVGGDRVG,< -0.25
14,SVTLN,< -0.25
15,PIAFRCDGVCFTRRNMLGRG,-0.243
16,CSFSCATTRPTLVEEVNGTG,< -0.25
17,PSDLDVLCVLGSDSPLRQVF,< -0.25
18,VAYVDAPAGSARICRDHVIT,< -0.25
19,RDGDLGGRADAWVRMA,< -0.25
20,SKGRAGTWCTLSVNPCALEP,< -0.25
21,MSSDKDGERYFC,< -0.25
22,WITNKRQDSPFGAMRGLCR,< -0.25
23,WGPRD,-0.167
24,GHRSLIGMFRAKPRSMGAGT,< -0.25
25,QQYTRFTRPGA,< -0.25
26,QRLFSHVCYGIPIIYVERHR,< -0.25

row,Substance,growth estimate
1,PAHD,< -0.25
2,RWGP,< -0.25
3,SSLSACRDLSHTANSPISKA,< -0.25
4,LCRVPVR,< -0.25
5,CCLHVASATVVLHTVTLPLS,< -0.25
6,RDDSRCEP,< -0.25
7,SDADSV,< -0.25
8,VPLTDESGCAGTENILGANK,< -0.25
9,IYGYGLLLTRIFHSLHSSRL,< -0.25
10,IKHRT,< -0.25
11,LFRYLTFGYCLIHNVGRQTR,< -0.25
12,RPDKKVVEH,< -0.25
13,VVTIVRGATIACRDRFCTPP,< -0.25
14,VILAART,< -0.25
15,MNGMPSDVRRRNLQGP,< -0.25
16,RRSIGE,< -0.25
17,TPYLEGQ,< -0.25
18,KHAEEWESRGVSVRYS,< -0.25
19,FFEFSVMGPSPSEAVSDRKN,< -0.25
20,DFNRPFSRECVIDIFIIPHY,< -0.25
21,RRCECEL,< -0.25
22,RRCEFPT,< -0.25
23,CQGRPSSVCMSWVAVQ,< -0.25
24,DRRLAGFYLGIVERKVAAPA,< -0.25
25,TKSLSLTLV,< -0.25
26,THILIGFTLPDQRVY,< -0.25

# A few values from the results shown:
# Under growth estimate, CSLDRSQDELNPLVS has the entry < -0.25
# Under growth estimate, CSWNRV has the entry < -0.25

# Remaining list, next part:

row,Substance,growth estimate
1,ITFYGRI,< -0.25
2,RGHRGGSIFHVYWSVCVDKS,< -0.25
3,SGKERNCYRVYVGSINRAGI,< -0.25
4,YHGWISEATVDFLEGL,< -0.25
5,QGNKWLALIGTVRP,-0.243
6,RGPSNDVCSKQWRGHTGDKI,-0.228
7,TLLTV,< -0.25
8,MHLGVPFWQWVYGLCSH,< -0.25
9,QRVMGVRSPSVPLLVWRRFG,< -0.25
10,QSGMKIDS,-0.231
11,RHHDIAFALGCKKLSQLGQH,< -0.25
12,LLKTT,< -0.25
13,LETGTLGSTPVVKRCEVQSD,< -0.25
14,VPG,< -0.25
15,FKVWAAG,< -0.25
16,VTGY,< -0.25
17,VQRKAYYGDPVYP,< -0.25
18,KNSLGCRRHQARGGIIEHRD,< -0.25
19,INPR,< -0.25
20,IHKRVVEYAPLC,< -0.25
21,PSRIQSPAKMLCAKDVRILA,< -0.25
22,WLGEAMDLDS,< -0.25
23,GRYCAGICRNREHDFTHESH,-0.231
24,LFMDFVFCRAWAT,< -0.25
25,WIPIRTALFFLSFRLTNIAS,< -0.25
26,DGNLATYQNLSRLVWT,-0.245

row,Substance,growth estimate
1,RAGGEGGVAQRPRTVRWRKR,< -0.25
2,RRWTATLSLGLGNAKFSHSH,< -0.25
3,IQAQGRFSLAVVEHVDRKLV,< -0.25
4,EVTDFVSLRDIKQVPKAAAI,< -0.25
5,VVRLASFR,< -0.25
6,GLRRCRRSSDNRVMALRIAG,< -0.25
7,APVFAVAVFSILAGERRQCG,< -0.25
8,EPFYSASPQDLAGMKRAVQR,< -0.25
9,NSGTAGDLPHTRVPRLLASS,< -0.25
10,REGAAPHPARLCLAGHYTLH,< -0.25
11,TYIPCSTPLPVSLVIDGLTV,< -0.25
12,STHVSWYGDFMVRGREFING,< -0.25
13,GQW,< -0.25
14,CARAKQRTKG,< -0.25
15,TQQYEHSPACACYLRGN,< -0.25
16,DIALRQPNSSDESLPIQSIC,< -0.25
17,GYDNIVEFS,0.0712
18,TLVSALSMGSWGFHTGLGHS,< -0.25
19,RSF,< -0.25
20,DSRF,< -0.25
21,AFSPQRPSVLISYRVRGVRR,< -0.25
22,QLDTRGGLALDTSAQ,< -0.25
23,GIIGE,< -0.25
